Literature values as cited in patent US12004868B2, “Liposomal mitigation of drug-induced inhibition of the cardiac IKr channel” (Signpath Pharma, Inc., priority 2011, dated 2024).

Details: human, in vivo; cited from earlier work

## CCCCc1oc2ccccc2c1C(=O)c1cc(I)c(OCCN(CC)CC)c(I)c1 [Amiodarone]
  increase in QT intervals: 10%
